Data from the supplement of paper PMC10849652.
The other results are listed elsewhere or left out.

Sequences of proteins named here, by UniProt entry; tags and fusion partners are left off. A change or cut given only in a name is not applied to a line headed by its entry.
UniProt P31995: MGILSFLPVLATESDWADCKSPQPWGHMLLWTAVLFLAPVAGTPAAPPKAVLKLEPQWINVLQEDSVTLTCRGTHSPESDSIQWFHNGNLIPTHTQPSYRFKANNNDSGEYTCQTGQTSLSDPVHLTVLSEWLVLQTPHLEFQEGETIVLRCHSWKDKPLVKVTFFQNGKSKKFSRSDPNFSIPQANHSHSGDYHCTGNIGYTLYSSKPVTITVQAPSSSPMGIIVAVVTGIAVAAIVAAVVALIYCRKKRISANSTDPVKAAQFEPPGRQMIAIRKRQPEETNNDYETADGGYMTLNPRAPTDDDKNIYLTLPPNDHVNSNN
UniProt O95302: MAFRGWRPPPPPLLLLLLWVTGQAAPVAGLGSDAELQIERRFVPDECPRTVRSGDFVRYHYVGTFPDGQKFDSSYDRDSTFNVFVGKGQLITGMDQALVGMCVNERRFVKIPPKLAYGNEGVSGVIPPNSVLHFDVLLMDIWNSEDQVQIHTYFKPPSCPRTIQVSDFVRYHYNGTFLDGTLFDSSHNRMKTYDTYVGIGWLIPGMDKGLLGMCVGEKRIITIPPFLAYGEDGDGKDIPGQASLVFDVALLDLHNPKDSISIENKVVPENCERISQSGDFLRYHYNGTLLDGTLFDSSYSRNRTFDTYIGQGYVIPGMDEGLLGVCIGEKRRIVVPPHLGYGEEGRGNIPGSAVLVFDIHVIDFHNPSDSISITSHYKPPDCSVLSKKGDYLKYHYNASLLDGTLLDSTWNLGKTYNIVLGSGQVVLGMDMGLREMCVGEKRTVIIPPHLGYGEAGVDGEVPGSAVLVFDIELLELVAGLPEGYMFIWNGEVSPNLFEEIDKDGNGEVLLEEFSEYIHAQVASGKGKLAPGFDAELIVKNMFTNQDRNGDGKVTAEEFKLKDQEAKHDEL
UniProt Q5T1M5: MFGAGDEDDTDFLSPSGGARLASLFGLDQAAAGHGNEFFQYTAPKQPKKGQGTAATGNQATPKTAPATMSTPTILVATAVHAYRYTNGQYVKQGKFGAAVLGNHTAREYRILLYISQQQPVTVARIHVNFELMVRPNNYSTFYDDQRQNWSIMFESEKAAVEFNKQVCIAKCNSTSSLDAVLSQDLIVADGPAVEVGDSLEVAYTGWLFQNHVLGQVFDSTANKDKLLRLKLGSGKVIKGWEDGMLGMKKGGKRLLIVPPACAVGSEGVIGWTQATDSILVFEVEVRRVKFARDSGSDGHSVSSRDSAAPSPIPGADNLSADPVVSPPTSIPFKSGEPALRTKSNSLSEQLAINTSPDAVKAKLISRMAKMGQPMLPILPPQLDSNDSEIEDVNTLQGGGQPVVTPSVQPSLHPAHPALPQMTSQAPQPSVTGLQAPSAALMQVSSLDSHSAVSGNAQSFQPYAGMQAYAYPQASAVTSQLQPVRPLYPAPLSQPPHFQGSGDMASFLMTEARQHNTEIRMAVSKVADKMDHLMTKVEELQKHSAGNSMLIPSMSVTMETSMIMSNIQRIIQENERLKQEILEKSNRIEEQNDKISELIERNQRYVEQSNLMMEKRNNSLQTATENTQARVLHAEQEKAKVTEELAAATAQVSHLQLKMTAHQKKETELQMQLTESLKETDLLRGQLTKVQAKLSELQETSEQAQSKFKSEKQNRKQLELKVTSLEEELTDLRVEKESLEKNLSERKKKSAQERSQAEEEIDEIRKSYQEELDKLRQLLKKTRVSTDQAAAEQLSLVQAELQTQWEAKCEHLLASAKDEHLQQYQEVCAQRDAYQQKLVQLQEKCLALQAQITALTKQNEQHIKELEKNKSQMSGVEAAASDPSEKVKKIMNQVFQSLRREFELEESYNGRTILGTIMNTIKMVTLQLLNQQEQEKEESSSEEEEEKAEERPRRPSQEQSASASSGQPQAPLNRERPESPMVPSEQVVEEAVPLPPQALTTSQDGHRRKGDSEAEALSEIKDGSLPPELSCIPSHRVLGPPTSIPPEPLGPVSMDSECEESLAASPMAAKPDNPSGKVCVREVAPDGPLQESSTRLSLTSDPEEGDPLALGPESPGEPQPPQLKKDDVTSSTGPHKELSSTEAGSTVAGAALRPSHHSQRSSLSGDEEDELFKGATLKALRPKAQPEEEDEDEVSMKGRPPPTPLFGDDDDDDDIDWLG
UniProt Q8N8J7: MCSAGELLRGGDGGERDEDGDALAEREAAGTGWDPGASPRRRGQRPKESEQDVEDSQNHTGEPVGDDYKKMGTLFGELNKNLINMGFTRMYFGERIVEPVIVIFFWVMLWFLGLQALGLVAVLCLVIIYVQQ
UniProt Q13451: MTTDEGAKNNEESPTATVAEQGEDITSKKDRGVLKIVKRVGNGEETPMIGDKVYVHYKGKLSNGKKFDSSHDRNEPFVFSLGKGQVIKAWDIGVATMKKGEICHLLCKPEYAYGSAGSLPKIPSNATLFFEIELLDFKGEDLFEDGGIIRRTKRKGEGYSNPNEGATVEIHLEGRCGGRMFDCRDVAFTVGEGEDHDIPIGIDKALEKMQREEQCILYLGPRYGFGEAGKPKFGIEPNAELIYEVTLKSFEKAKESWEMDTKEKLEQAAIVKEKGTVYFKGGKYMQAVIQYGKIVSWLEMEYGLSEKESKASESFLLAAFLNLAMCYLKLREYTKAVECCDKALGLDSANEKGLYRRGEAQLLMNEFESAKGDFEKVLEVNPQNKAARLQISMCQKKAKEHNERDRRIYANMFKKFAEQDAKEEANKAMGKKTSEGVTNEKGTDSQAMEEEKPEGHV
UniProt Q14320: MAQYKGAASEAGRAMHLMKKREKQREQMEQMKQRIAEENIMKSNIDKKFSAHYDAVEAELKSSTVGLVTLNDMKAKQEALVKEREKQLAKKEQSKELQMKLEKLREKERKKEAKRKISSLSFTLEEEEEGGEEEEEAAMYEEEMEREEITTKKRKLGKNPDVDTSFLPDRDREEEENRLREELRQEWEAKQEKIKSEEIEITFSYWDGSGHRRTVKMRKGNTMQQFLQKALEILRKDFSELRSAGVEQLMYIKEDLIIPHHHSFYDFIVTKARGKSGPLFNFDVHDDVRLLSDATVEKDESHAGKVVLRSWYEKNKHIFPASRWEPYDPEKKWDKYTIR
UniProt Q9Y421: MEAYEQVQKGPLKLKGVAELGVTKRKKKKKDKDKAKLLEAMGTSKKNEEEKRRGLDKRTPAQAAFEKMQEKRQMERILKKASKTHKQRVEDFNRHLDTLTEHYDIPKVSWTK
UniProt Q9BXW9: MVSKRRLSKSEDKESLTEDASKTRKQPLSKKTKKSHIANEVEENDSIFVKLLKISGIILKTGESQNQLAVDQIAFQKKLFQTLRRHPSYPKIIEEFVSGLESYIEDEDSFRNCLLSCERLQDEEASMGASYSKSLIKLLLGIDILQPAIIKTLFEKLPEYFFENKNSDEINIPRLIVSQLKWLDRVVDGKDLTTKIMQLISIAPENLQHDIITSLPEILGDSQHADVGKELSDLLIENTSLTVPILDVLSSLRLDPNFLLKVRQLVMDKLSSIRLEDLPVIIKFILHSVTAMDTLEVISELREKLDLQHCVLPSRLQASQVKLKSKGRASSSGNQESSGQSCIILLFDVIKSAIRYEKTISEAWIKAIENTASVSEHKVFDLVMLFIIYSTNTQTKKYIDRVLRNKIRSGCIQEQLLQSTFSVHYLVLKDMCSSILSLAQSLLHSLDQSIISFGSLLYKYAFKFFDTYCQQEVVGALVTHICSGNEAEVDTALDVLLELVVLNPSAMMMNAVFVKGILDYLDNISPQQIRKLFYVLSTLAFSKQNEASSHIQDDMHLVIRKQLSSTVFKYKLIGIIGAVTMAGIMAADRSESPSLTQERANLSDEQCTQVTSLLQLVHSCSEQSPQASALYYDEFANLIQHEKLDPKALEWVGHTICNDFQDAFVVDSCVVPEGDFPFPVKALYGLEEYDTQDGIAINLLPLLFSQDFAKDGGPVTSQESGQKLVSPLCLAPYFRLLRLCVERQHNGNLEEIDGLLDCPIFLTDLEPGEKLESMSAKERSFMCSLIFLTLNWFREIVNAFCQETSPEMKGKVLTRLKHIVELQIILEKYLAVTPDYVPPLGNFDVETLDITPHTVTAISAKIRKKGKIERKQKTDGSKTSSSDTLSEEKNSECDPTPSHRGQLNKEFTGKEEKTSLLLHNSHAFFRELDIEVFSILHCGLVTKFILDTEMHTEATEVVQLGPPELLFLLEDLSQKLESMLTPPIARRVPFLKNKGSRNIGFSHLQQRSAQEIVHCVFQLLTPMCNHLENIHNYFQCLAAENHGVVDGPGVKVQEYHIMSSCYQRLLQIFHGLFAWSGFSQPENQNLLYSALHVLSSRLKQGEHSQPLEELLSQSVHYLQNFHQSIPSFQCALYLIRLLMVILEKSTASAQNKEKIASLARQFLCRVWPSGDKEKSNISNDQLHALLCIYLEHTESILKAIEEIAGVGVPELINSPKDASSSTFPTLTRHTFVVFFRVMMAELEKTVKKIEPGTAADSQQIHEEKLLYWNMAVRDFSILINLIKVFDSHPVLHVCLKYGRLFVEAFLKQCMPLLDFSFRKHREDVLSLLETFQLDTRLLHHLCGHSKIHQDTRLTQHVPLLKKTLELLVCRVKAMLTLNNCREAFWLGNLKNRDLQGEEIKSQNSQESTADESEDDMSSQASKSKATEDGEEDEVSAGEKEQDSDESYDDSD
UniProt P12318: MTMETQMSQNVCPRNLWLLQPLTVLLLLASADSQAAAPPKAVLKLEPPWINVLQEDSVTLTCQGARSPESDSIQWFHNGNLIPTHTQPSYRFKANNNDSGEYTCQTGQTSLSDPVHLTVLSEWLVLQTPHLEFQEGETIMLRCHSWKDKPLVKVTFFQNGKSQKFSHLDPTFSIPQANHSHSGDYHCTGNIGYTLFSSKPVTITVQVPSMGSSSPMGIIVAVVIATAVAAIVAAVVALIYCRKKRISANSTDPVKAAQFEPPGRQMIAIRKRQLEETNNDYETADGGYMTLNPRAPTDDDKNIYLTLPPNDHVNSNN
UniProt Q86WN1: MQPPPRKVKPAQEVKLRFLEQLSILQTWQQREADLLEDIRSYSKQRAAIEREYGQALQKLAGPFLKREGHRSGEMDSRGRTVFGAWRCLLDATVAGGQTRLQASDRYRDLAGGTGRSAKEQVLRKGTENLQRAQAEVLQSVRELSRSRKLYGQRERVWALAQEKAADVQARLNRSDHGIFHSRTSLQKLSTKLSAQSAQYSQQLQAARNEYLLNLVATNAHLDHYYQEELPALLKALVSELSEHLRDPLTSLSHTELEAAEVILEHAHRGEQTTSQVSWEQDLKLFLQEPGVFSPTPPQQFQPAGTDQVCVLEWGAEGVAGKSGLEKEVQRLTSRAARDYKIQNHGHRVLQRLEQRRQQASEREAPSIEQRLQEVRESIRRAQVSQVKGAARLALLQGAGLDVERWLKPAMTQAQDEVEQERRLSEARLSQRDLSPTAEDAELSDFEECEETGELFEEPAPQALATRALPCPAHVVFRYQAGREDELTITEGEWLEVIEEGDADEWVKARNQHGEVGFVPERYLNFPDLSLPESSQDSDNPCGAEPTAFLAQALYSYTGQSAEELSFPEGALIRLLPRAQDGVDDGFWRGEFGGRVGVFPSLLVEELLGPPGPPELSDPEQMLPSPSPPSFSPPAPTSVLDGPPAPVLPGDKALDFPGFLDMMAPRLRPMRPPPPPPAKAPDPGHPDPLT
UniProt Q9UKT8: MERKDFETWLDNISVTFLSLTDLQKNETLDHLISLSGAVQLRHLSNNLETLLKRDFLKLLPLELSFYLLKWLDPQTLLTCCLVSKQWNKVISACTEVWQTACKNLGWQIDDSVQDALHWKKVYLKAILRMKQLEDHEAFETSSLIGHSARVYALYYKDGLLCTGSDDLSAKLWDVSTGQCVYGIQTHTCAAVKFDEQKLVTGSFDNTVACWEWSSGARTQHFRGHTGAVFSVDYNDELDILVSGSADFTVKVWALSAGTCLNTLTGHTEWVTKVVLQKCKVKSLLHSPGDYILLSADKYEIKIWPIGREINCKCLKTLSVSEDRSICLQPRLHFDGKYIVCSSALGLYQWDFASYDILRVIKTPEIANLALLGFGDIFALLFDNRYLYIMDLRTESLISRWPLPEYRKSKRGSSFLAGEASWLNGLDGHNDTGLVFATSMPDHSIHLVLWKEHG
UniProt Q96CP2: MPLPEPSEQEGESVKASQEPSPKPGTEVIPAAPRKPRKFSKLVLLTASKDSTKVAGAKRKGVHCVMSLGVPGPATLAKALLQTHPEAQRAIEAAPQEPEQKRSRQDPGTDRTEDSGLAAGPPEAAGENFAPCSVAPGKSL
UniProt P62942, whole entry, looked up: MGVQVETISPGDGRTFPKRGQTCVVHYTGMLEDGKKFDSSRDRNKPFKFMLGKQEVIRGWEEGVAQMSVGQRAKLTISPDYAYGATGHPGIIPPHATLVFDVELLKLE
UniProt Q96KR6: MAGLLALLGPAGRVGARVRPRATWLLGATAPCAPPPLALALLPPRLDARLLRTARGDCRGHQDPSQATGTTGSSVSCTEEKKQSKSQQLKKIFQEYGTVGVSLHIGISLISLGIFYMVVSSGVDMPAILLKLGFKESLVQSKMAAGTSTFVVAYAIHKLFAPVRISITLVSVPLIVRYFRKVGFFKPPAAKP

Columns and labels:
Test in all cases: log2 fold change, soluble protein after heating vs DMSO (PISA); higher = thermal stabilisation; K562 cells, 10 uM, 30 min; active = over 0.2 and 3.5 SD of the protein, either way, in both replicates (recomputed)
[1] = compound: COC1=CC=C(C=C1)CN2C=CC3=C2C=C(C=C3)C(=O)NO
How it was run: (§1)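 K562 cells at 2×10^6 cells/mL were treated with 10 μM compound for 30 min. Aliquots were heated for 3 min across 48°C-58°C, pooled, and extracted in PBS with 0.5% NP-40 at 4°C; soluble protein was the supernatant after 21,000xg for 90 min. Soluble protein was quantified by TMTpro 16plex LC-MS/MS with channel sums equalised, and reported as log2 fold change in thermal stability against DMSO controls, with values from duplicates.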

filanesib = compound: CON(C)C(=O)N1N=C(c2cc(F)ccc2F)S[C@@]1(CCCN)c1ccccc1 [filanesib]
How it was run: as §1

zotarolimus = compound: CO[C@H]1C[C@@H]2CC[C@@H](C)[C@@](O)(O2)C(=O)C(=O)N2CCCC[C@H]2C(=O)O[C@H]([C@H](C)C[C@@H]2CC[C@H](n3cnnn3)[C@H](OC)C2)CC(=O)[C@H](C)/C=C(\C)[C@@H](O)[C@@H](OC)C(=O)[C@H](C)C[C@H](C)/C=C/C=C/C=C/1C [zotarolimus]
How it was run: as §1

idasanutlin = compound: COc1cc(C(=O)O)ccc1NC(=O)[C@@H]1N[C@@H](CC(C)(C)C)[C@](C#N)(c2ccc(Cl)cc2F)[C@H]1c1cccc(Cl)c1F [idasanutlin]
How it was run: as §1

alisertib = compound: COc1cc(Nc2ncc3c(n2)-c2ccc(Cl)cc2C(c2c(F)cccc2OC)=NC3)ccc1C(=O)O [alisertib]
How it was run: as §1

[2] = compound: COc1cc2nc(-c3cc(F)ccc3O)nc(N[C@@H]3CNC[C@H]3C(C)(C)O)c2cc1OC
How it was run: as §1

gefitinib = compound: COc1cc2ncnc(Nc3ccc(F)c(Cl)c3)c2cc1OCCCN1CCOCC1 [gefitinib]
How it was run: as §1

[3] = compound: COc1cccc2cc(-c3nc([C@H]4CC[C@H](C(=O)O)CC4)n4ncnc(N)c34)[nH]c12
How it was run: as §1

lapatinib = compound: CS(=O)(=O)CCNCc1ccc(-c2ccc3ncnc(Nc4ccc(OCc5cccc(F)c5)c(Cl)c4)c3c2)o1 [lapatinib]
How it was run: as §1

pictilisib = compound: CS(=O)(=O)N1CCN(Cc2cc3nc(-c4cccc5[nH]ncc45)nc(N4CCOCC4)c3s2)CC1 [pictilisib]
How it was run: as §1

Measured: log2 fold change

FDFT1 (UniProt P37268)
inactive: [1] 0.123 | zotarolimus 0.014 | idasanutlin 0.013 | alisertib 0.008 | [2] -0.052 | gefitinib -0.01 | [3] 0.042 | lapatinib -0.023 | pictilisib 0
active: filanesib 0.401

FDPS (UniProt P14324)
inactive: [1] 0.048 | filanesib -0.246 | zotarolimus 0.019 | idasanutlin -0.063 | alisertib 0.066 | [2] 0.118 | gefitinib -0.047 | [3] 0.009 | lapatinib -0.018 | pictilisib -0.076

FBXO7 (UniProt Q9Y3I1)
inactive: [1] 0.037 | filanesib -0.069 | zotarolimus -0.026 | idasanutlin -0.04 | alisertib -0.082 | [2] 0.082 | gefitinib -0.023 | [3] 0.011 | lapatinib -0.082 | pictilisib 0.036

FCGR2C (UniProt P31995)
inactive: [1] 0.016 | filanesib 0.013 | zotarolimus -0.015 | idasanutlin -0.031 | alisertib -0.064 | [2] 0.017 | gefitinib 0.022 | [3] 0.055 | lapatinib -0.003 | pictilisib 0.063

FKBP9 (UniProt O95302)
inactive: [1] 0.035 | filanesib 0.045 | zotarolimus 0.046 | idasanutlin -0.013 | alisertib -0.029 | [2] 0.042 | gefitinib 0.019 | [3] -0.021 | lapatinib -0.006 | pictilisib 0.026

FKBP15 (UniProt Q5T1M5)
inactive: [1] 0.034 | filanesib 0.069 | zotarolimus 0.032 | idasanutlin 0.018 | alisertib 0.011 | [2] 0.094 | gefitinib 0.056 | [3] -0.071 | lapatinib 0.01 | pictilisib 0.011

FCSK isoform 2 (UniProt Q8N0W3)
inactive: [1] 0.047 | filanesib -0.021 | zotarolimus -0.008 | idasanutlin -0.055 | alisertib -0.153 | [2] -0.002 | gefitinib 0.04 | [3] 0.04 | lapatinib 0.059 | pictilisib 0.004

FLT4 (UniProt P35916)
inactive: [1] -0.053 | filanesib -0.068 | zotarolimus 0.016 | idasanutlin -0.065 | alisertib 0.932 | [2] 0.021 | gefitinib -0.115 | [3] -0.014 | lapatinib -0.062 | pictilisib -0.018

FAM241A (UniProt Q8N8J7)
active: filanesib -0.828
inactive: [1] 0.226 | zotarolimus -0.045 | idasanutlin 0.018 | alisertib -0.038 | [2] 0.042 | gefitinib 0.044 | [3] -0.006 | lapatinib -0.038 | pictilisib 0

FAM8A1 (UniProt Q9UBU6)
inactive: [1] 0.173 | filanesib -0.025 | zotarolimus 0.035 | idasanutlin -0.077 | alisertib -0.086 | [2] 0.023 | gefitinib -0.044 | [3] 0.03 | lapatinib 0.006 | pictilisib -0.027

FKBP5 (UniProt Q13451)
inactive: [1] 0.031 | filanesib 0.001 | zotarolimus 0.152 | idasanutlin -0.057 | alisertib -0.062 | [2] -0.006 | gefitinib 0.068 | [3] -0.093 | lapatinib -0.044 | pictilisib -0.038

2 records drawn at random from those above, as already listed:
FKBP5 (UniProt Q13451)
inactive: [1] 0.031 | filanesib 0.001 | zotarolimus 0.152 | idasanutlin -0.057 | alisertib -0.062 | [2] -0.006 | gefitinib 0.068 | [3] -0.093 | lapatinib -0.044 | pictilisib -0.038

FAM241A (UniProt Q8N8J7)
active: filanesib -0.828
inactive: [1] 0.226 | zotarolimus -0.045 | idasanutlin 0.018 | alisertib -0.038 | [2] 0.042 | gefitinib 0.044 | [3] -0.006 | lapatinib -0.038 | pictilisib 0

Later entries:

FAM50A (UniProt Q14320)
inactive: [1] -0.019 | filanesib -0.008 | zotarolimus 0.026 | idasanutlin -0.025 | alisertib -0.003 | [2] -0.026 | gefitinib 0.039 | [3] -0.025 | lapatinib 0.022 | pictilisib 0.056

FN3K (UniProt Q9H479)
inactive: [1] -0.01 | filanesib -0.019 | zotarolimus -0.009 | idasanutlin 0.008 | alisertib -0.06 | [2] -0.016 | gefitinib -0.011 | [3] 0.023 | lapatinib 0.042 | pictilisib -0.048

FAM91A1 (UniProt Q658Y4)
inactive: [1] -0.081 | filanesib -0.059 | zotarolimus 0.029 | idasanutlin -0.044 | alisertib -0.076 | [2] -0.003 | gefitinib -0.013 | [3] 0.035 | lapatinib 0.045 | pictilisib -0.047

FAM32A (UniProt Q9Y421)
inactive: [1] 0.416 | filanesib 0.163 | zotarolimus 0.009 | idasanutlin 0.05 | alisertib -0.014 | [2] 0.035 | gefitinib -0.311 | [3] -0.038 | lapatinib 0.035 | pictilisib 0.021

FANCD2 isoform 1 (UniProt Q9BXW9)
inactive: [1] 0.054 | filanesib -0.078 | zotarolimus -0.007 | idasanutlin -0.062 | alisertib -0.037 | [2] 0.053 | gefitinib -0.033 | [3] 0.031 | lapatinib -0.025 | pictilisib 0.123

FMR1 (UniProt Q06787)
inactive: [1] -0.3 | filanesib 0.219 | zotarolimus 0.005 | alisertib -0.023 | [2] 0.286 | [3] 0.322 | lapatinib -0.027 | pictilisib 0.036

FBXO9 (UniProt Q9UK97)
inactive: [1] 0.124 | zotarolimus -0.027 | [2] -0.169 | gefitinib 0.007 | [3] 0.077 | lapatinib 0.012 | pictilisib 0.036
active: alisertib 0.466

FCGR2A (UniProt P12318)
inactive: [1] -0.08 | filanesib 0.096 | idasanutlin -0.045 | alisertib -0.148 | [2] -0.026 | gefitinib 0.029 | [3] 0.107 | lapatinib 0.006 | pictilisib 0.023

FCHSD1 (UniProt Q86WN1)
inactive: [1] -0.034 | filanesib 0.178 | zotarolimus -0.138 | idasanutlin -0.148 | [2] 0.059 | lapatinib -0.06 | pictilisib -0.039

FBXW2 (UniProt Q9UKT8)
inactive: [1] -0.264 | filanesib 0.102 | zotarolimus -0.024 | idasanutlin -0.11 | alisertib -0.173 | [2] 0.147 | [3] 0.137 | lapatinib 0.027

FLYWCH2 (UniProt Q96CP2)
inactive: [1] -0.066 | filanesib 0.063 | zotarolimus 0.007 | idasanutlin -0.03 | alisertib -0.053 | [2] -0.118 | gefitinib -0.002 | [3] 0.057 | lapatinib 0 | pictilisib -0.13

FBXO38 (UniProt Q6PIJ6)
inactive: [1] -0.335 | filanesib 0.162 | zotarolimus -0.061 | idasanutlin -0.044 | [2] -0.005 | lapatinib -0.029

FAT1 (UniProt Q14517)
inactive: [1] 0.098 | filanesib 0.097 | zotarolimus -0.08 | alisertib -0.267 | [2] 0.027 | gefitinib 0.023 | [3] -0.098 | lapatinib 0.029 | pictilisib 0.041

FKBP1A (UniProt P62942)
inactive: [1] -0.009 | filanesib -0.052 | zotarolimus 0.189 | idasanutlin -0.09 | alisertib -0.073 | [2] 0.119 | gefitinib -0.027 | [3] -0.004 | lapatinib -0.032 | pictilisib 0.387

FAM210B (UniProt Q96KR6)
inactive: [1] 0.014 | filanesib -0.078 | zotarolimus -0.023 | idasanutlin -0.043 | gefitinib -0.024 | pictilisib -0.041
